According to patent US8691186B2, “Imaging infection with compounds that bind to thymidine kinase” (priority 2004, dated 2014):
At least one structure is not confirmed: it was looked up by name or label, or the drawing left a doubt.

Legend:
S. aureus 25923 = assay: Biodistribution in mice with S. aureus 25923 thigh infection; assay type: in vivo, Staphylococcus aureus; details: tracer 6 h after infection, tissues harvested after another 24 h
C. novyi-NT = assay: Biodistribution in xenograft-bearing mice injected with C. novyi-NT spores; assay type: in vivo, Clostridium novyi-NT; details: athymic nu/nu mice, HCTZ 16 xenografts, 8 h after tracer injection

O=c1[nH]c(=O)n([C@@H]2O[C@H](CO)[C@@H](O)[C@@H]2F)cc1[125I] [[^125I]FIAU, 2′-fluoro-2′deoxy-1-beta-D-arabinofuranosyl-5-iodo-uracil]
Ratio of radioactivity in infected thighs to uninfected (contralateral) thighs (S. aureus 25923): exceeding 14:1
tumor:muscle ratio (C. novyi-NT): 7:1
